In all, about 330,000 compounds went through this assay and about 7,700 (2.3%) were called active. This list was built around the results that the source calls inconclusive (neither active nor inactive); the mix of calls is not that of the screen. The call rests on the fitted dose curve; in most records, active means well fitted inhibition curve with a large enough effect; inconclusive means small, poorly fitted or top-dose-only effect, or effect the other way; inactive means flat fitted curve, though single readings scatter. Potencies of inconclusive entries are doubtful fits and often do not repeat.
Assay: qHTS screen for small molecules that inhibit ELG1-dependent DNA repair in human embryonic kidney (HEK293T) cells expressing luciferase-tagged ELG1; further: nearly all actives have a fitted effect of over 55% in size
Conditions: HEK293T ELG1-luciferase reporter, luminescence, 16 h, DNA damage induced by 5-fluorouridine; series mostly up to 46.1 µM
Method in brief: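 Overnight (16 hr) co-exposure of 2,000 cells/well to 5-fluorouridine and compound at 37 °C preceded detection. Luciferase was quantified via ONE-Glo luminescence; loss of signal denotes inhibition.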
Potency means the concentration at half of the fitted maximal effect.

Structure (SMILES)	Potency
O=C(O)c1nc2ccccc2nc1C(=O)O	inconclusive: 4.61 µM [activator, partial curve]
CC(=O)CC(=O)Nc1ncccn1	inactive
O=S(=O)(c1cccc(Cl)c1Cl)N1CCCCC1	inconclusive: 29.1 µM [activator, partial curve, poor fit]
CCN(CC)CCn1nc2c3c(cccc3c1=O)-c1ccccc1-2	inconclusive: 29.1 µM [inhibitor, single point]
COc1ccc(CNCCC(c2ccc(OC)cc2)c2ccccc2OC)cc1 (centres undefined)	inconclusive: 25.9 µM [inhibitor, partial curve, poor fit]
COc1ccc(N(CC(=O)NCc2ccccc2OC)S(=O)(=O)c2ccc(C)cc2)cc1Cl	inconclusive: 32.6 µM [inhibitor, single point]
COc1cccc(NC(=O)Nc2ccc3nsnc3c2)c1	inconclusive: 1.16 µM [activator, full curve, poor fit]
S=C(Nc1ccccc1)Nc1nc2ccccc2n1CCOc1ccc(Cl)cc1	inconclusive: 23.1 µM [activator, single point]
CCn1nnc(NC(=O)COc2cc(C)ccc2C(C)C)n1	inactive
COc1ccc(S(=O)(=O)Nc2ccc3c(c2)n(C)c(=O)n3C)cc1F	inconclusive: 3.26 µM [activator, partial curve, poor fit]
C=CCn1c(NCc2c[nH]c3ccccc23)nc2ccccc21	inconclusive: 16.4 µM [activator, single point]
CC(C)CC(N)C(=O)OCc1ccc([N+](=O)[O-])cc1 (centres undefined)	inconclusive: 5.8 µM [inhibitor, single point]
Cc1ccc(C2CC(c3ccc(Cl)cc3)=NNC2=O)cc1 (centres undefined)	inconclusive: 20.6 µM [inhibitor, partial curve, poor fit]
O=C(Nc1cccc(O)c1)c1cc(-c2cccs2)on1	inconclusive: 16.4 µM [activator, single point]
COc1ccc(/C=N/NC(=O)c2ccccc2O)cc1CN1CCOCC1	inconclusive: 18.3 µM [inhibitor, single point]
CCCn1nc2cc(C(=O)NCc3ccccc3)ccc2c1OCC	inconclusive: 32.6 µM [inhibitor, single point]
COc1ccccc1N(Cc1ccccc1)S(=O)(=O)c1cccc(C(=O)N2CCCCC2)c1	inactive
CNC(=S)Nc1cccc(C(C)=O)c1	inactive
CCN(/N=C/C=C/c1ccccc1)c1cc(=O)n(C)c(=O)[nH]1	inactive
CC(=O)c1ccc(-n2nnnc2SCC(=O)Nc2sc(C)c(C)c2C#N)cc1	inactive
CNC(=O)c1csc(-c2ccc(Cl)cc2)n1	inconclusive: 20.6 µM [activator, partial curve]
CSCC[C@H](NC(=O)N1CCn2c1nc1ccccc12)C(=O)NCc1ccc(F)cc1	inconclusive: 18.3 µM [inhibitor, single point]
CCCS(=O)(=O)c1c(S(=O)(=O)CCC)c2c(N)cccn2c1C(=O)c1ccccc1	inconclusive: 29.1 µM [inhibitor, single point]
CCOc1ccc(NS(=O)(=O)c2ccc3c(c2)CCN3C(C)=O)cc1	inconclusive: 2.31 µM [inhibitor, partial curve, poor fit]
CC(C)c1ccc(CNc2ncccn2)cc1	inconclusive: 18.3 µM [activator, partial curve]

17 of these compounds, set out differently.

| Structure (SMILES) | Potency |
| --- | --- |
| O=C(O)c1nc2ccccc2nc1C(=O)O | inconclusive: 4.61 µM [activator, partial curve] |
| CC(=O)CC(=O)Nc1ncccn1 | inactive |
| CCN(CC)CCn1nc2c3c(cccc3c1=O)-c1ccccc1-2 | inconclusive: 29.1 µM [inhibitor, single point] |
| COc1ccc(CNCCC(c2ccc(OC)cc2)c2ccccc2OC)cc1 (centres undefined) | inconclusive: 25.9 µM [inhibitor, partial curve, poor fit] |
| COc1ccc(N(CC(=O)NCc2ccccc2OC)S(=O)(=O)c2ccc(C)cc2)cc1Cl | inconclusive: 32.6 µM [inhibitor, single point] |
| COc1cccc(NC(=O)Nc2ccc3nsnc3c2)c1 | inconclusive: 1.16 µM [activator, full curve, poor fit] |
| CCn1nnc(NC(=O)COc2cc(C)ccc2C(C)C)n1 | inactive |
| COc1ccc(S(=O)(=O)Nc2ccc3c(c2)n(C)c(=O)n3C)cc1F | inconclusive: 3.26 µM [activator, partial curve, poor fit] |
| C=CCn1c(NCc2c[nH]c3ccccc23)nc2ccccc21 | inconclusive: 16.4 µM [activator, single point] |
| CC(C)CC(N)C(=O)OCc1ccc([N+](=O)[O-])cc1 (centres undefined) | inconclusive: 5.8 µM [inhibitor, single point] |
| Cc1ccc(C2CC(c3ccc(Cl)cc3)=NNC2=O)cc1 (centres undefined) | inconclusive: 20.6 µM [inhibitor, partial curve, poor fit] |
| COc1ccc(/C=N/NC(=O)c2ccccc2O)cc1CN1CCOCC1 | inconclusive: 18.3 µM [inhibitor, single point] |
| COc1ccccc1N(Cc1ccccc1)S(=O)(=O)c1cccc(C(=O)N2CCCCC2)c1 | inactive |
| CC(=O)c1ccc(-n2nnnc2SCC(=O)Nc2sc(C)c(C)c2C#N)cc1 | inactive |
| CNC(=O)c1csc(-c2ccc(Cl)cc2)n1 | inconclusive: 20.6 µM [activator, partial curve] |
| CSCC[C@H](NC(=O)N1CCn2c1nc1ccccc12)C(=O)NCc1ccc(F)cc1 | inconclusive: 18.3 µM [inhibitor, single point] |
| CC(C)c1ccc(CNc2ncccn2)cc1 | inconclusive: 18.3 µM [activator, partial curve] |

More records.

Structure (SMILES)	Potency
COc1ccc(OCC(O)CNC(=O)c2sccc2Cl)cc1 (centres undefined)	inconclusive: 1.83 µM [activator, partial curve, poor fit]
CCCCNS(=O)(=O)c1ccc(NC(=O)C(Sc2ccccc2)c2ccccc2)cc1 (centres undefined)	active: 18.4 µM
N#Cc1ccc(C(=O)Nc2ccn(-c3ccccc3)n2)cc1	active: 23.1 µM
Cc1cc(C(=O)COC(=O)c2ccc(O)cc2)c(C)n1CC(F)(F)F	inconclusive: 2.06 µM [activator, full curve]
Cc1cccc(NC(=O)Cc2ccc(-c3ccccc3)cc2)n1	inactive
C#CNC(=O)C1(CC=C)CCNCC1	inactive
CCn1c(CSc2nnc(C)n2-c2ccccc2)nc2cc(S(=O)(=O)N(C)C)ccc21	inactive
COc1cc(/C=N/Nc2ccc(S(N)(=O)=O)cc2[N+](=O)[O-])cc(OC)c1O	active: 9.2 µM
Fc1ccc(CSc2nnc(-c3ccccn3)o2)cc1	inconclusive: 10.3 µM [activator, partial curve]
O=C(c1cc2c(s1)-c1ccccc1OC2)N1CCCC1	inconclusive: 3.66 µM [activator, full curve]
CO/N=C/c1ccc(Oc2ccc(C)cc2)nc1	inconclusive: 12.6 µM [activator, single point]
COCCCn1c(SCCc2ccccc2)nc2cc(OC)c(OC)cc2c1=N	inconclusive: 29.1 µM [inhibitor, single point]
CCN(CCO)c1ccc(-n2c(N)c(C(=O)OC)c3nc4ccccc4nc32)cc1	inconclusive: 23.1 µM [inhibitor, partial curve]
COc1ccc(NC(=O)CN(C)C(=O)CNC(=O)c2sc3ccccc3c2Cl)cc1	inconclusive: 5.17 µM [activator, partial curve]
CCC1=NN(C(=O)c2ccccc2Br)C(O)(c2ccc(Br)cc2)C1 (centres undefined)	inactive
CC(=O)Oc1ccc(C2(C)CC(C)(C)Oc3cc(OC(C)=O)ccc32)c(OC(C)=O)c1 (centres undefined)	inactive
CCCCOc1ccc(C(=O)N2CCCCCC2)cc1	inconclusive: 20.6 µM [activator, single point]
CC(=O)Nc1ccc(NC(=O)Cn2cnc3c(cnn3C(C)(C)C)c2=O)cc1	inconclusive: 13 µM [activator, partial curve, poor fit]
CN(C)C(C(=O)Nc1cc(Cl)cc(Cl)c1)c1ccccc1 (centres undefined)	inactive
Cc1ccc2[nH]cc(C(=O)CCl)c2c1	inconclusive: 23.1 µM [inhibitor, single point]
CCC(=O)Nc1ccc(C(=O)CSc2nc3ccc(C)cc3[nH]2)cc1	inconclusive: 23.1 µM [activator, single point]
O=C(NC(=S)N1CCN(C/C=C/c2ccccc2)CC1)c1ccc(F)cc1	active: 10.3 µM
CC1=NN(C(C#N)c2ccc([N+](=O)[O-])cc2)C(C)(C)C1 (centres undefined)	inconclusive: 1.64 µM [inhibitor, partial curve, poor fit]
CC(C)(C)c1csc(NC(=O)CSc2nc3ccccc3c(=O)[nH]2)n1	inactive
O=C1OC(c2ccccc2)=N/C1=C\N1CCCCC1	inconclusive: 18.4 µM [activator, partial curve]

Structure (SMILES)	Potency
CCN(Cc1ccccc1)C(=O)CCCOc1ccccc1	inconclusive: 14.6 µM [activator, partial curve]
S=C(NCC1CCCCC1)Nc1cccnc1	inactive
Cc1c(Cl)sn(-c2ccc(Cl)cc2)c1=O	inconclusive: 29.1 µM [inhibitor, partial curve, poor fit]
O=C(CCN1C(=O)/C(=C/c2ccccc2)SC1=S)Nc1cccnc1	inactive
COc1cc2cc(CCCOC(=O)c3ccc4c(c3)OCO4)oc(=O)c2cc1OC	inconclusive: 23.1 µM [inhibitor, single point]
CC(C)(C)NC(=S)NC(C)(C)C	inactive
CNC(=S)NNC(=O)c1ccccc1Cl	inactive
COCCn1c(SCCOc2ccccc2)nc2ccccc2c1=O	inconclusive: 23.1 µM [inhibitor, partial curve, poor fit]
Cc1ccc(NS(=O)(=O)c2cc(C(=O)N3CCOCC3)ccc2C)cc1	inactive
C(=N\Nc1nc2ccccc2[nH]1)/c1cccc2nccnc12	inconclusive: 5.17 µM [inhibitor, single point]
CC(=O)Nc1ccc(NC(=O)C2CCCN(S(=O)(=O)c3ccc(Cl)cc3)C2)cc1 (centres undefined)	inconclusive: 18.3 µM [activator, single point]
CC(C)(C)C1CCc2c(sc(NC(=O)C3CC=CCC3C(=O)O)c2C#N)C1 (centres undefined)	inconclusive: 6.51 µM [inhibitor, single point]
Cc1ccc(CONC(=O)c2cccc([N+](=O)[O-])c2)cc1	inconclusive: 20.6 µM [activator, single point]
COC(=O)c1ccccc1NC(=O)NC1CC1	inactive
CCOC(=O)N1CCN(C(=O)CSc2nnc(-c3cc(OC)ccc3OC)o2)CC1	inconclusive: 32.6 µM [inhibitor, partial curve, poor fit]
CCOC(=O)c1sc(Nc2ccccc2)nc1C	inconclusive: 10.3 µM [activator, partial curve]
Nc1ccc(-c2nnc(-c3ccc(N)cc3)o2)cc1	inconclusive: 14.6 µM [activator, partial curve]
COC(=O)c1sccc1NC(=O)CN(C)NS(=O)(=O)c1ccc(F)cc1	inactive
COc1ccc(N/C(N)=N/c2nc(C)c(Cc3ccccc3)c(=O)[nH]2)cc1	inactive
COc1cc(NC(=O)c2cccc([N+](=O)[O-])c2C)ccc1NC(=O)c1ccco1	inconclusive: 25.9 µM [activator, single point]
CC(=O)Nc1ccc(S(=O)(=O)N2CCC(N3CCCCCC3)CC2)cc1	inactive
N#CC1=C(N)Oc2nc(-c3ccccc3)[nH]c2C1c1cccnc1 (centres undefined)	inconclusive: 11.6 µM [activator, partial curve]
Cc1cccc(CNC(=O)C(C)n2nc(C)c3c(C)n(-c4ccccc4)nc3c2=O)c1 (centres undefined)	inactive
COc1ccccc1-c1cn[nH]c1-c1ccc(OCc2ccccc2)cc1O	inconclusive: 8.2 µM [inhibitor, partial curve]

From PubChem BioAssay AID504467 (National Center for Advancing Translational Sciences (NCATS), 2011)
